The values that follow come from patent publication US20230108730A1, “BIENZYMATIC BIOSENSOR FOR THE DETECTION OF LACTULOSE IN BLOOD” (TRIVIUMVET DESIGNATED ACTIVITY COMPANY, priority 2020, published 2023).

SMILES strings stand for the structures.

The nature of the data set: Plasma lactulose after oral lactulose solution in canine NSAID-induced gastric ulceration model (ion chromatography). Conditions: cut-off plasma lactulose >100 μM within 60 mins of oral 20% w/v lactulose solution; canine study group. The class given is in vivo, dog. As for the experimental part:
A model of canine gastric ulceration was developed using a combination of orally administered nonsteroidal anti-inflammatory drugs (NSAIDs) at doses appropriate to induce ulceration without concomitant renal or hepatic dysfunction. Healthy laboratory dogs (14.0 to 16.7 kg) were screened to exclude individuals with clinically silent disorders, including gastrointestinal disease. Under the GCP study protocol, each dog was administered 50 ml of a 20% w/v lactulose solution orally (0.6-0.7 g/kg lactulose PO) following a 24-h fast at baseline and following a period of ulcer induction. On each occasion, peripheral venous blood was drawn from each dog into 1.3-ml Sarstedt blood tubes containing lithium heparin as an anticoagulant at 10, 20, 30 and 60 minutes following bolus administration of the lactulose solution. The Sarstedt tube product number was 41.1393.005. […] Prior to lactulose administration, endoscopy was performed on each dog, and the presence and extent of gastric ulceration were assessed by a blinded specialist veterinary gastroenterologist. […] Following thawing, the samples were analysed for lactulose concentration using an ion chromatography method previously developed using blank plasma samples spiked with known concentrations of lactulose. […] The supernatants were analysed directly by ion chromatography. […] Samples were analysed in duplicate. […]

Consider `OC[C@H]1O[C@@H](O[C@@H]2[C@@H](CO)OC(O)(CO)[C@H]2O)[C@H](O)[C@@H](O)[C@H]1O` (mixture of isomers) [Lactulose, lactulose], for which the “sensitivity for induced gastric ulceration” value is 75% and the “specificity for induced gastric ulceration” value came to 100%.
